Data as given in PubChem BioAssay AID504793 (Drosophila RNAi Screening Center, 2011)
The deposit covers about 23,000 reagents; below is an unselected part of those with a known target gene and a result. Of all reagents, 62 (0.27%) are marked active. 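Calls come from follow-up tests whose scores are not deposited, so confirmed genes may have low counts here; counts are not normalised per plate.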 Raw values are not corrected between plates. The numbers tell different reagents against one gene apart.

- Screen: 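Genes required for cells to halt at G2/M after double-strand DNA breaks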 (primary screen)
- System: Drosophila S2R+ cells
- Reagent: long dsRNA against Drosophila genes, about 0.25 µg dsRNA per well
- Timing: 4 days of dsRNA, then 4 hours of drug before read-out
- Challenge: doxorubicin 0.5 µM for 4 hours to cause double-strand breaks, in cells also given a low, harmless dose of dsRNA against nbs to sensitise the assay
- Detection: 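Mitotic index as the number of phospho-histone H3-positive cells in each well following doxorubicin, given as raw counts without normalisation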
- Direction: mitotic cells: higher = more cells in mitosis, weaker G2 arrest
- Rule for the call: 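Genes are called active only when high mitotic counts were reproduced with independent dsRNAs and mitosis was checked for delay without damage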
- Calls: active = confirmed in follow-up tests; inactive = not confirmed

target | reagent | mitotic cells, replicate 1 | mitotic cells, replicate 2 | call
l(2)k09022 (lethal (2) k09022) | 1 | 10 | – | inactive
ssh (slingshot) | 1 | 6 | – | inactive
ssh (slingshot) | 2 | 2 | – | inactive
CG31206 | 1 | 6 | – | inactive
CG3520 | 1 | 3 | – | inactive
Nsun5 (Nop2/Sun-like domain containing protein 5) | 1 | 6 | – | inactive
disp (dispatched) | 1 | 3 | – | inactive
CG16865 | 1 | 6 | – | inactive
s-cup (stanley-cup) | 1 | 3 | – | inactive
s-cup (stanley-cup) | 2 | 8 | – | inactive
s-cup (stanley-cup) | 3 | 2 | – | inactive
RNASEK (Ribonuclease kappa) | 1 | 12 | – | inactive
CG11300 | 1 | 11 | – | inactive
sdk (sidekick) | 1 | 8 | – | inactive
ClC-b (Chloride channel-b) | 1 | 9 | – | inactive
Lsd-1 (Lipid storage droplet-1) | 1 | 5 | – | inactive
CG10953 | 1 | 2 | – | inactive
Hacl (2-hydroxyacyl-CoA lyase) | 1 | 3 | – | inactive
tsh (teashirt) | 1 | 4 | – | inactive
Moe (Moesin) | 1 | 3 | – | inactive
Moe (Moesin) | 2 | 7 | – | inactive
CG2818 | 1 | 1 | – | inactive
Tom40 (Translocase of outer membrane 40) | 1 | 8 | – | inactive
Past1 (Putative Achaete Scute Target 1) | 1 | 10 | – | inactive
CG14218 | 1 | 16 | 8 | inactive
CG14218 | 2 | 4 | – | inactive
ko (knockout) | 1 | 3 | – | inactive
ko (knockout) | 2 | 8 | – | inactive
CG14427 | 1 | 12 | – | inactive
CG14427 | 2 | 8 | – | inactive
TrpRS (Tryptophanyl-tRNA synthetase) | 1 | 3 | – | inactive
CG11882 | 1 | 8 | – | inactive
CG11882 | 2 | 5 | – | inactive
CG33467 | 1 | 3 | – | inactive
CG33467 | 2 | 9 | – | inactive
CG32407 | 1 | 2 | – | inactive
Akap200 (A kinase anchor protein 200) | 1 | 7 | – | inactive
spg (sponge) | 1 | 11 | – | inactive
spg (sponge) | 2 | 14 | – | inactive
MP1 (Melanization Protease 1) | 1 | 13 | 15 | inactive
MP1 (Melanization Protease 1) | 2 | 3 | – | inactive
CG16926 | 1 | 9 | – | inactive
CG13842 | 1 | 8 | – | inactive
sip3 (septin interacting protein 3) | 1 | 8 | – | inactive
sip3 (septin interacting protein 3) | 2 | 1 | – | inactive
BckdhA (Branched chain keto acid dehydrogenase E1 subunit alpha) | 1 | 4 | – | inactive
CG14868 | 1 | 3 | – | inactive
CG14868 | 2 | 5 | – | inactive
CG32537 | 1 | 6 | – | inactive
CG32537 | 2 | 6 | – | inactive
mam (mastermind) | 1 | 5 | – | inactive
mam (mastermind) | 2 | 17 | – | inactive
mam (mastermind) | 3 | 15 | – | inactive
CheA7a (Chemosensory protein A 7a) | 1 | 14 | – | inactive
CG17764 | 1 | 8 | – | inactive
CG10969 | 1 | 6 | – | inactive
CG10969 | 2 | 8 | – | inactive
CG5217 | 1 | 6 | – | inactive
Ets65A (Ets at 65A) | 1 | 6 | – | inactive
Ets65A (Ets at 65A) | 2 | 4 | – | inactive
Ets65A (Ets at 65A) | 3 | 14 | – | inactive
Andorra | 1 | 5 | – | inactive
CG32248 | 1 | 10 | – | inactive
CG32248 | 2 | 10 | – | inactive
tamo | 1 | 6 | – | inactive
tamo | 2 | 5 | – | inactive
CG30356 | 1 | 10 | – | inactive
CG31211 | 1 | 17 | – | inactive
CG31211 | 2 | 3 | – | inactive
CG31211 | 3 | 5 | – | inactive
snRNP-U1-70K (small ribonucleoprotein particle U1 subunit 70K) | 1 | 6 | – | inactive
snRNP-U1-70K (small ribonucleoprotein particle U1 subunit 70K) | 2 | 4 | – | inactive
snRNP-U1-70K (small ribonucleoprotein particle U1 subunit 70K) | 3 | 5 | – | inactive
CG15599 | 1 | 6 | – | inactive
CG14191 | 1 | 7 | – | inactive
CG14191 | 2 | 7 | – | inactive

Laid out differently: results already given
CG11300
- mitotic cells, replicate 1: 11
- call: inactive

sdk (sidekick)
- mitotic cells, replicate 1: 8
- call: inactive

ClC-b (Chloride channel-b)
- mitotic cells, replicate 1: 9
- call: inactive

Lsd-1 (Lipid storage droplet-1)
- mitotic cells, replicate 1: 5
- call: inactive

CG10953
- mitotic cells, replicate 1: 2
- call: inactive

Hacl (2-hydroxyacyl-CoA lyase)
- mitotic cells, replicate 1: 3
- call: inactive
